Measurements reported in PubChem BioAssay AID504784 (Drosophila RNAi Screening Center, 2011)

Screen: 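Search for regulators of lipid droplet storage in oleate-fed fly cells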 (primary screen)
Cell system: Drosophila Kc167 embryonic cells
Knock-down reagent: long dsRNA against Drosophila genes, about 250 ng dsRNA per well
Duration: 4 days
Treatment: cells fed 400 µM oleic acid bound to BSA
Measured: 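Microscope images give a droplet-to-nucleus area ratio, taken as log and converted to a screen-wide B-score; higher values mean greater lipid storage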
Reading the numbers: droplet/nuclear area B-score: higher = more stored lipid (overstorage)
The screen tested about 17,000 reagents; this is an unselected part of those with a known target gene and a result. 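Each column is one replicate's B-score; the combined score over replicates was not deposited, so single values may mislead.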 Names joined by + are all predicted targets of the reagent. Not all columns of the deposit are shown.

droplet/nuclear area B-score, replicate 1, by target and reagent
CG11180: DRSC06055 0.176
Doa: DRSC13892 0.433; DRSC13893 0.677; DRSC13896 0.693; DRSC13897 2.29; DRSC16650 -0.674
CG31446: DRSC13111 1.2
CG8252: DRSC07126 1.57
CG13481: DRSC10023 1.28
CG14736: DRSC14956 -0.659
cnc: DRSC14676 0.529; DRSC15289 -2.58; DRSC15600 -0.209; DRSC15601 -0.136
CG2747: DRSC15450 1.53
CG12355: DRSC09381 1.33; DRSC09883 0.339
CG32473: DRSC14352 0.286; DRSC16446 1.53
sm: DRSC05795 -0.498; DRSC07686 0.0144
Sf3b5: DRSC14460 -5.57
CG13545: DRSC04187 -0.0352
CG6441: DRSC02957 2.06
Lar: DRSC01707 2.57; DRSC03361 1.61
CG17376: DRSC21717 1.85
CG10761: DRSC17753 0.281
CG11656: DRSC14338 0.927
CaMKI: DRSC17162 0.235
Fdx2: DRSC08306 -1.34
nord: DRSC04210 1.41; DRSC04361 -2.72
mora: DRSC16594 0.0183
Ets21C: DRSC00751 -0.0912
CG1288: DRSC12538 -0.871
CG42662 + CG30080: DRSC05571 -2.88
Ance-3: DRSC02648 -0.107; DRSC02649 -0.699
Cyp310a1: DRSC03301 0.659
CG10927: DRSC06014 0.0266
CG10194: DRSC02025 0.666
CG13476: DRSC10019 1.74
Dnaaf6: DRSC10473 2.18
mRpL48: DRSC00506 1.8
Mgat4b: DRSC10256 0.271
Pkn + Tsen15: DRSC21969 -0.669
apn: DRSC15124 -0.803
Obp19b: DRSC20536 -1.44
CG14227: DRSC19584 0.964
Paip1: DRSC07302 -1.53
CG31343: DRSC15887 -0.0587
blp: DRSC15757 -0.16
CG14130: DRSC10134 0.739
CG34169: DRSC01579 1
Girdin: DRSC08292 -0.0873
CG8272: DRSC07134 0.298
eIF2beta: DRSC11341 8.61
Taf7: DRSC15445 -1.15
CG32811: DRSC22649 -1.05
Eig71Eg: DRSC11154 -1.33
AMPdeam: DRSC19366 1.02; DRSC19368 -0.303; DRSC19727 -4.49
Vps2: DRSC14886 2.74
CG14352: DRSC00382 -2.18
CG12680: DRSC17871 -1.15
Fbl6: DRSC06335 -0.829
CG11523: DRSC11669 0.187
ppk21: DRSC14466 -1.75
sisA: DRSC20374 0.0123
su(sable): DRSC18839 -2.18
CG30414: DRSC04372 -3.4
pll: DRSC17026 -0.805
stet: DRSC08246 -1.14; DRSC08283 1.09
sif: DRSC08759 -0.804; DRSC11395 0.00552; DRSC22065 -0.00151; DRSC22828 -1.44
CG14708: DRSC14930 3.05
Nplp1: DRSC04370 -0.79
RPA2: DRSC03184 -0.0836

7 entries from above, sorted by “droplet/nuclear area B-score, replicate 1”, descending.
target	DRSC id	droplet/nuclear area B-score, replicate 1
Vps2	DRSC14886	2.74
CG11523	DRSC11669	0.187
Fbl6	DRSC06335	-0.829
CG12680	DRSC17871	-1.15
ppk21	DRSC14466	-1.75
CG14352	DRSC00382	-2.18
AMPdeam	DRSC19727	-4.49
